Assay results published in US10844027B2, “Carboxylic diarylthiazepineamines as mu-opioid receptor agonists” (THE TRUSTEES OF COLUMBIA UNIVERSITY IN THE CITY OF NEW YORK, priority 2015, dated 2020).

Assay: Brain pharmacokinetics of tianeptine and its 5-carbon metabolite (7i) in mice
Method: Brain samples were collected from three mice at 0.08, 0.25, 0.5, 1, 2, 4, 8 and 24 h, homogenized using ice-cold phosphate buffer saline (pH 7.4), and stored below −70° C. until analysis. Total homogenate volume was three times the tissue weight. All samples were processed for analysis by protein precipitation using acetonitrile (ACN) and analyzed with a fit-for-purpose LC/MS/MS method (LLOQ—1.01 ng/mL in brain). Pharmacokinetic parameters were calculated using the non-compartmental analysis tool of Phoenix WinNonlin® (Version 6.3).

[1] = male, C57BL/6, mouse, in vivo, ip, 30 mg/kg

SMILES: CN1c2ccccc2C(NCCCCCCC(=O)O)c2ccc(Cl)cc2S1(=O)=O (stereo not drawn) [Tianeptine, tianeptine, reference compound]
- AUClast (brain, C57BL/6 mice, single injection (30 mg/kg, i.p.) of tianeptine): 351 ng·h/g
- Cmax [1]: 1020 ng/g
- Tmax [1]: 4.8 min
